Results are given in words; binding and its absence hold for the method and conditions named. Binding calls can cover weak binding; strength is not graded here.

For the experiment, the target named is HLA-A*02:01 (human). Put plainly: UV peptide-exchange ELISA, exchange yield grade. For orientation: In an ELISA, binding on a coated surface is turned into a signal by an enzyme label.
For the molecule VLEDKVLSV [… (SEQ ID NO: 278)], the binding entry was “binds”.

For the molecule GLVDIMVHL [… (SEQ ID NO: 5)], the binding entry was “binds”.

Regarding GLLETTGLLAT [… (SEQ ID NO: 31)], the binding result is “binds”.

Turning to KLIGNIHGNEV [… (SEQ ID NO: 49)], the binding entry was “binds”.

As to GLNGFNVLL [… (SEQ ID NO: 47)], the binding result is “binds”.

Take SLSEKSPEV [… (SEQ ID NO: 65)]: the binding entry is recorded as “binds”.

On to TLNTLDINL [… (SEQ ID NO: 34)], for which the binding result is “binds”.

For the molecule MLLDTVQKV [… (SEQ ID NO: 285)], the binding result is recorded as “binds”.

As to FLTEMVHFI [… (SEQ ID NO: 286)], the binding entry is reported as “binds”.

On to AVPPPPSSV [… (SEQ ID NO: 275)], for which the binding entry was “binds”.

As to IVTEIISEI [… (SEQ ID NO: 41)], the binding result was “binds”.

On to AMFPDTIPRV [… (SEQ ID NO: 66)], for which the binding entry is “binds”.

As for FLIENLLAA [… (SEQ ID NO: 67)], the binding entry is listed as “binds”.

On to VIIKGLEEI [… (SEQ ID NO: 35)], for which the binding result is “binds”.

Take YLFSQGLQGL [… (SEQ ID NO: 60)]: the binding result is on record as “binds”.

For the molecule SLDKDIVAL [… (SEQ ID NO: 268)], the binding result is recorded as “binds”.

For the molecule IKVTDPQLLEL [… (SEQ ID NO: 28)], the binding entry is recorded as “binds”.

Take FLPVSVVYV [… (SEQ ID NO: 45)]: the binding result is “binds”.

KIWEELSVLEV [… (SEQ ID NO: 40)]: the binding entry was “binds”.

Take FLNAIETAL [… (SEQ ID NO: 6)]: the binding entry is recorded as “binds”.

Regarding AVFNLVHVV [… (SEQ ID NO: 44)], the binding result is given as “binds”.

Consider TLLTFFHEL [… (SEQ ID NO: 270)], for which the binding result is on record as “binds”.

With FLLDKPQDLSI [… (SEQ ID NO: 265)], the binding entry is on record as “binds”.

As for HLFDKIIKI [… (SEQ ID NO: 55)], the binding entry is recorded as “binds”.

VLFGELPAL [… (SEQ ID NO: 4)]: the binding result is on record as “binds”.

For SIIEYLPTL [… (SEQ ID NO: 263)], the binding entry is “binds”.

As to FLLDKPQDL [… (SEQ ID NO: 266)], the binding result is given as “binds”.

On to KLMDPGSLPPL [… (SEQ ID NO: 284)], for which the binding result is “binds”.

In the case of VLQQESNFL [… (SEQ ID NO: 38)], the binding entry was “binds”.

As to HLLGEGAFAQV [… (SEQ ID NO: 58)], the binding entry is “binds”.

On to VLMDEGAVLTL [… (SEQ ID NO: 279)], for which the binding entry is on record as “binds”.

For the molecule TLHDQVHLL [… (SEQ ID NO: 264)], the binding entry was “binds”.

For TLYPGRFDYV [… (SEQ ID NO: 57)], the binding entry is “binds”.

Turning to GLTEKTVLV [… (SEQ ID NO: 70)], the binding result was “binds”.

As to GLAALAVHL [… (SEQ ID NO: 261)], the binding result is “binds”.

Regarding VLSTRVTNV [… (SEQ ID NO: 72)], the binding result is “binds”.

For the molecule LLLESDPKVYSL [… (SEQ ID NO: 281)], the binding entry was “binds”.

In the case of ALSELLQQV [… (SEQ ID NO: 283)], the binding entry is recorded as “binds”.

For the molecule LLLEAVWHL [… (SEQ ID NO: 262)], the binding entry is given as “binds”.

Regarding RMPTVLQCV [… (SEQ ID NO: 276)], the binding entry is “binds”.

Consider TLDRNSLYV [… (SEQ ID NO: 33)], for which the binding result is reported as “binds”.

On to GLLDCPIFL [… (SEQ ID NO: 269)], for which the binding entry was “binds”.

Consider FVMEGEPPKL [… (SEQ ID NO: 272)], for which the binding result is “binds”.

As for SLYAGSNNQV [… (SEQ ID NO: 64)], the binding entry is reported as “binds”.

With KQMSISTGL [… (SEQ ID NO: 42)], the binding entry is “binds”.

With SLNKQIETV [… (SEQ ID NO: 273)], the binding entry is “binds”.

As to ALADGIKSFLL [… (SEQ ID NO: 59)], the binding result is “binds”.

On to LKVLKADVVL [… (SEQ ID NO: 69)], for which the binding entry was “binds”.

Consider LDSEALLTL [… (SEQ ID NO: 51)], for which the binding entry was “binds”.

For TIGIPFPNV [… (SEQ ID NO: 52)], the binding result is “binds”.

Consider SLYALHVKA [… (SEQ ID NO: 282)], for which the binding result was “binds”.

Regarding YLVPGLVAA [… (SEQ ID NO: 54)], the binding entry was “binds”.

For HMSGKLTNV [… (SEQ ID NO: 71)], the binding result is recorded as “binds”.

Turning to VLIEYNFSI [… (SEQ ID NO: 271)], the binding entry was “binds”.

In the case of AQHLSTLLL [… (SEQ ID NO: 53)], the binding entry is “binds”.

For KLQEELNKV [… (SEQ ID NO: 277)], the binding entry is on record as “binds”.

With ALYPKEITL [… (SEQ ID NO: 61)], the binding result is on record as “binds”.

GLLGKVTSV [… (SEQ ID NO: 27)]: the binding result is “binds”.

Regarding YLEDGFAYV [… (SEQ ID NO: 39)], the binding result is recorded as “binds”.

Turning to ILLSVLHQL [… (SEQ ID NO: 50)], the binding entry is reported as “binds”.

As to QIVELIEKI [… (SEQ ID NO: 37)], the binding result is “binds”.

Take KLLPMVIQL [… (SEQ ID NO: 63)]: the binding result was “binds”.

For HLWGHALFL [… (SEQ ID NO: 280)], the binding entry is listed as “binds”.

As for ALLQALMEL [… (SEQ ID NO: 7)], the binding result is listed as “binds”.

As to KISDFGLATV [… (SEQ ID NO: 48)], the binding result is “binds”.

YLLDMPLWYL [… (SEQ ID NO: 267)]: the binding entry was “binds”.

With TLYNPERTITV [… (SEQ ID NO: 274)], the binding result is reported as “binds”.

For TVLQELINV [… (SEQ ID NO: 36)], the binding result is “binds”.

Take SLVENIHVL [… (SEQ ID NO: 62)]: the binding result is “binds”.

Consider QLMNLIRSV [… (SEQ ID NO: 68)], for which the binding result was “binds”.

These data come from US20230203127A1.
